Results deposited as PubChem BioAssay AID1671195 (Yale University, 2021)
In all, the deposit lists about 22,000 reagents; below is an unselected part. About 1,510 of them (6.9%) count as active. 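Active includes knockdowns raising or lowering LDL uptake; positive z-scores mean more uptake, negative mean less.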 No sequences are given here.

Assay: 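Genes whose knockdown alters LDL uptake in liver cancer cells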 (primary screen)
System: human Huh7 hepatoma cells
Reagent: siRNA pool against human genes, 18 nM
Time to read-out: about 2 to 2.5 days of knockdown, then 8 h LDL uptake
Challenge: DiI-labelled LDL at 30 µg/ml for 8 h, in lipoprotein-deficient serum medium
Measurement: 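Fluorescent LDL signal imaged in cells, scaled to the plate median, robust z-score for each replicate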
Reading the numbers: robust z-score: higher = more LDL uptake after knockdown
Active means: 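a gene counts as active if at least two replicate z-scores exceed ±2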

gene	robust z-score, replicate 1	robust z-score, replicate 2	robust z-score, replicate 3	outcome
LOC401131	-0.855	-1.18	-0.813	inactive
LINC00269	-1.03	-1.47	-1.63	inactive
IDO1	-0.332	0.127	-0.0638	inactive
COX6A2	-0.62	-0.746	-0.364	inactive
ZNF295-AS1	-0.603	-1.12	-0.954	inactive
CYGB	4.99	2.15	-1.4	active
ORM1	2.01	1.51	1.56	inactive
MANBA	-0.101	-0.379	-0.215	inactive
RBMS1	-0.944	0.0322	-1.04	inactive
FGFBP2	-1.14	-1.11	-1.78	inactive
CDA	-0.247	0.205	-0.422	inactive
FAM86EP	-1.12	-0.777	-1.14	inactive
OTOS	-0.378	-1.15	-0.105	inactive
PLEKHM2	2.97	3.29	2.48	active
CT75	1.8	2.05	0.873	inactive
STYXL1	0.812	0.724	0.535	inactive
LINC02072	2.25	2.53	1.43	active
TCERG1L	0.757	0.545	0.312	inactive
FOXS1	-1.15	-1.42	-1.32	inactive
ZNF843	0.117	0.269	0.166	inactive
GLIS3	-0.741	-0.474	-0.768	inactive
LOC392791 (retired record)	0.691	1.18	0.982	inactive
GPRASP1	-0.176	0.00765	-1.9	inactive
EVI2B	-0.981	-1.35	-0.804	inactive
HSD3B2	-1.42	-1.87	-1.3	inactive
H2BC13	0.463	2.17	1.34	inactive
RAMP1	-0.131	-0.443	-0.273	inactive
BARX2	-1.25	0.354	0.665	inactive
WARS1P1	0.429	-0.0336	0.0371	inactive
ZNF354C	0.00406	0.848	0.0461	inactive
LOC442273 (retired record)	-1.77	-1.77	-1.61	inactive
ZNF30	-0.304	0.163	-0.0459	inactive
EBP	0.832	1.91	0.745	inactive
MYH1	0.121	-0.38	0.0457	inactive
COQ6	-1.2	-1.35	-1.38	inactive
CLHC1	-1.21	-1.21	-0.186	inactive
CAMKMT	-0.881	-0.0931	-0.47	inactive
ENKUR	0.013	-0.497	-0.339	inactive
HSP90AB6P	-0.765	-1.19	-1.33	inactive
TCF25	-0.64	0.12	-1.72	inactive
GRHL1	0.413	0.378	-1.4	inactive
SPTBN1	1.73	0.518	2.76	inactive
OR2A12	-0.162	0.284	0.178	inactive
DDX39A	-0.536	0.0916	0.317	inactive
MBL2	-1.05	-1.19	-1.04	inactive
LOC401464 (retired record)	-0.225	0.115	0.0839	inactive
TRHR	-0.0463	-0.326	-0.0315	inactive
DGKK	-0.572	0.15	-0.246	inactive
EEF1AKMT1	-0.203	-0.285	-0.254	inactive
LOC392337 (retired record)	-0.835	0.235	0.0652	inactive
JAKMIP2	-0.276	0.778	-0.0345	inactive
LLPH	0.29	0.113	0.376	inactive
SLX9	-0.489	-1.06	-1.02	inactive
OR10A4	-0.811	-0.559	-0.668	inactive
PSTK	0.465	0.673	0.0922	inactive
LOC441580 (retired record)	1.22	0.148	0.289	inactive
LOC389081 (retired record)	-0.26	0.00124	0.127	inactive
KRTAP19-2	0.092	-0.139	-0.165	inactive
CFH	1.24	-0.76	0.625	inactive
RPS17P10	1.16	1.04	0.962	inactive
KBTBD3	1.7	1.45	1.19	inactive
STAP1	1.97	0.149	-0.301	inactive
GPM6A	-0.171	-0.642	0.264	inactive
GYPC	0.928	1.87	1.25	inactive
MYO3A	0.639	-0.116	-0.192	inactive
PCDHA11	1.41	1.52	1.03	inactive
LY6K	-1.99	-0.0703	-1.28	inactive
COL18A1	1.15	1.59	1.49	inactive

11 entries from above, arranged by “robust z-score, replicate 1”, low to high:
gene	robust z-score, replicate 1	robust z-score, replicate 2	robust z-score, replicate 3	outcome
CLHC1	-1.21	-1.21	-0.186	inactive
COQ6	-1.2	-1.35	-1.38	inactive
CAMKMT	-0.881	-0.0931	-0.47	inactive
HSP90AB6P	-0.765	-1.19	-1.33	inactive
TCF25	-0.64	0.12	-1.72	inactive
ZNF30	-0.304	0.163	-0.0459	inactive
ENKUR	0.013	-0.497	-0.339	inactive
MYH1	0.121	-0.38	0.0457	inactive
GRHL1	0.413	0.378	-1.4	inactive
EBP	0.832	1.91	0.745	inactive
SPTBN1	1.73	0.518	2.76	inactive
